Experimental data published in PubChem BioAssay AID1671190 (National Center for Advancing Translational Sciences (NCATS), 2021).
In all, about 580,000 compounds went through this assay and about 6,100 (1.1%) were called active. Inconclusive means that the source gave no clear call. Such entries were picked first, then a sample of the others. The call rests on the fitted dose curve; in most records, active means well fitted inhibition curve with a large enough effect; inconclusive means small, poorly fitted or top-dose-only effect, or another doubt; inactive means no such curve, though single readings can be large or run the other way. Potencies beside an inconclusive call are fits to weak or partial responses and may not hold up.

Protein sequences, listed by entry. Tags and fused reporters are not part of them. Lines headed by an entry give the natural chain unless they say otherwise; changes in a name come on top.
UniProt P18054: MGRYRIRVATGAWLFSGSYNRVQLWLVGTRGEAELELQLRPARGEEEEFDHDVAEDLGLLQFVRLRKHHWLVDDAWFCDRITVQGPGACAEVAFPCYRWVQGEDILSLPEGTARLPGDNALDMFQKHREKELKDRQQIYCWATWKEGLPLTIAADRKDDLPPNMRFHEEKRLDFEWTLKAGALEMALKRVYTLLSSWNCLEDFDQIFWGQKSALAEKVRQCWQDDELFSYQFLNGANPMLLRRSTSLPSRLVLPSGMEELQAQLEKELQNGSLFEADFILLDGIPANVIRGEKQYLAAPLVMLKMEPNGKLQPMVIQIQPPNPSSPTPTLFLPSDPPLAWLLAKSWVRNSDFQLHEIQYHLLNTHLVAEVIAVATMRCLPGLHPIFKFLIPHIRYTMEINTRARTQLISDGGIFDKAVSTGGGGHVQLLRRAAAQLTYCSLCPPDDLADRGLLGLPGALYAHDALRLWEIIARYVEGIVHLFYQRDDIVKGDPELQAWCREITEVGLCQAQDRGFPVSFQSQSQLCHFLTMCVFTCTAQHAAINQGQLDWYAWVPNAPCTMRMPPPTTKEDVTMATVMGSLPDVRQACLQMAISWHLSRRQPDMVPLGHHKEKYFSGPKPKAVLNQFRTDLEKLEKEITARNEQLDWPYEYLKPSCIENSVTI

Each compound was assayed against Polyunsaturated fatty acid lipoxygenase ALOX12 (Homo sapiens) (UniProt P18054) (assay: Primary qHTS assay for inhibitors of human arachidonate 12S-lipoxygenase (ALOX12): Round 2). Conditions: purified 12hLO, xylenol orange hydroperoxide absorbance; activity change, negative = inhibition: at 108 µM (top of the series) unless noted.
In short: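 Purified human 12hLO (150 nM final) in 25 mM Hepes, 0.01% Triton X-100, pH 7.0 was preincubated 15 min at room temperature with compound. Then 40 uM arachidonic acid was added, 30 min. Hydroperoxide was read by Fe-XO absorbance ratio 573/405 nm.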
On the % scale 0 is the no-effect control and ±100 the full control effect; potency means the concentration at half of the fitted maximal effect.

Structure (SMILES)	Potency	activity change, negative = inhibition
Cc1cc(C)c(NC(=O)CNC(=O)c2ccccc2SCC(=O)N2CCCC2)c(C)c1	inconclusive: 44.7 µM [inhibitor, partial curve, poor fit]	–
C/C(=N\NC(N)=S)c1ccc([N+](=O)[O-])cc1	inconclusive: 89.1 µM [inhibitor, partial curve, poor fit]	–
Cc1cc(N2CCN(C(c3ccccc3)c3ccccc3)CC2)n2ncnc2n1	inconclusive: 44.7 µM [inhibitor, partial curve, poor fit]	–
O=[N+]([O-])c1ccccc1S(=O)(=O)N1CCN(CC2CC3C=CC2C3)CC1 (configuration not stated)	inconclusive: 1.58 µM [inhibitor, full curve, poor fit]	–
CC1=C(C(=O)Nc2ccccc2)C(c2cccs2)n2nc(-c3ccccc3)nc2N1 (configuration not stated)	inactive	–
O=C(Nc1ccc(Br)cc1F)N1Cc2cccn2-c2ccccc21	inconclusive: 100 µM [inhibitor, single point]	–
COc1ccc(CCNC(=O)COC(=O)COc2ccc(C#N)cc2)cc1	inconclusive: 112 µM [inhibitor, single point]	–
CN(C)Cc1ccccc1CNC(=O)Cc1nn(C)c(=O)c2ccccc12	inactive	–
O=C(NC(=S)NC1CCCCC1)c1ccc(Cl)cc1	active: 2.82 µM	–
O=C(NCc1ccc(F)cc1)c1cc(C2CCCCN2C(=O)c2ccc3c(c2)CCO3)on1 (configuration not stated)	–	inconclusive: -43.2% [inhibitor]
Cc1ccc(C(=O)O)cc1Nc1nc2ccccc2n2nnnc12	inconclusive: 126 µM [inhibitor, single point]	–
COCc1nncn1C1CCN(C(=O)c2ccc(F)c(Cl)c2)CC1	inactive	–
Cc1ccc(Cl)cc1N1CCN(C(=O)CCC(=O)Nc2ccc3nc(N4CCC(C)CC4)cc(C)c3c2)CC1	inactive	–
C[S+](=O)([O-])CCn1ncc2cc(OCc3cccc(-c4ccc(F)cc4)c3)ccc21	inactive	–
Cc1ccccc1-c1cc(C(=O)NCc2cccc(Br)c2)nn1CC1CC(c2cccc([N+](=O)[O-])c2)=NO1 (configuration not stated)	inconclusive: 50.1 µM [inhibitor, partial curve, poor fit]	–
FC(F)Oc1ccc(NC(=S)Nn2cnnc2)cc1	inconclusive: 44.7 µM [inhibitor, partial curve, poor fit]	–
O=C(COc1ccc(Cl)cc1Br)OCC(=O)c1ccc(-c2ccccc2)cc1	inactive	–
COc1ccc(C(CNC(=O)c2cc3c(s2)CCC(C)C3)N2CCCC2)cc1 (configuration not stated)	inactive	–
NNC(=O)CN1C(c2ccccc2)=Nc2ccc(Br)cc2C1c1ccccc1 (configuration not stated)	inactive	–
Cc1ccc(S(=O)(=O)NCCC(=O)NCC(c2ccco2)N2CCCCC2)cc1C (configuration not stated)	inconclusive: 89.1 µM [inhibitor, single point]	–
COc1ccc(NC(=O)CC2CCCC2)cc1S(=O)(=O)N1CCCCC1	inconclusive: 3.98 µM [inhibitor, full curve, poor fit]	–

Structure (SMILES)	Potency	activity change, negative = inhibition
CC(=O)c1c(C)[nH]c(C(=O)C(C)Oc2ccc(C(=O)c3ccc(F)cc3)cc2)c1C (configuration not stated)	inactive	–
O=C(c1ccccc1)N1CC2(CCCCN2Cc2cccnc2)Cc2ccccc21 (configuration not stated)	–	inactive: 5.6% [at 6.33 µM]
O=C(Cc1cccs1)NC1CCSC1=O (configuration not stated)	inconclusive: 44.7 µM [inhibitor, partial curve, poor fit]	–
Cc1nc(N2CCC(NC(=O)Cc3ccccc3Cl)CC2)cc(C(F)(F)F)n1	inconclusive: 12.6 µM [inhibitor, full curve, poor fit]	–
Cc1ccc2cc(C#N)c(N3CCCN(C(=S)NCCCN(C)C)CC3)nc2c1	inconclusive: 44.7 µM [inhibitor, partial curve, poor fit]	–
Nc1c(C(=O)c2ccc(Cl)cc2)sc2nsc(SCCN3CCOCC3)c12	inconclusive: 1.78 µM [inhibitor, full curve, poor fit]	–
COc1ccc(F)cc1CSc1nnnn1-c1ccc(O)cc1	inconclusive: 89.1 µM [inhibitor, single point]	–
O=C(CCN1CCN(c2ccccc2)CC1)N/N=C/c1ccc(O)c(O)c1O	inconclusive: 12.6 µM [inhibitor, full curve, poor fit]	–
CCOc1ccc(NC(=O)c2ccncc2)cc1	inactive	–
O=C(NNC(=S)NC(=O)c1cccnc1)c1ccc(Cl)cc1	inconclusive: 44.7 µM [inhibitor, partial curve, poor fit]	–
Cc1cc(SCC(=O)NN2C(=O)NC3(CCCCC3)C2=O)nc2c(C)cccc12	inactive	–
CC(=O)c1ccc(NC(=O)C2C3C=CC(C3=C(c3ccccc3)c3ccccc3)C2C(=O)O)cc1 (configuration not stated)	inconclusive: 89.1 µM [inhibitor, partial curve, poor fit]	–
Oc1ccccc1-c1cc(-c2cccc(F)c2)n[nH]1	inconclusive: 44.7 µM [inhibitor, partial curve, poor fit]	–
COc1ccc(CCNC(=O)CSc2nc3[nH]ncc3c(=O)n2-c2ccc(Br)cc2)cc1OC	inactive	–
CC(=O)Nc1ccccc1-c1nn[nH]n1	inconclusive: 70.8 µM [inhibitor, partial curve, poor fit]	–
COc1cc(NC(=O)c2ccccc2)ccc1NC(=O)c1cc2ccccc2o1	inconclusive: 126 µM [inhibitor, partial curve, poor fit]	–
Cc1ccc(-n2c(C)cc(/C=N/Nc3ccc([N+](=O)[O-])cn3)c2C)c(C)c1	inconclusive: 89.1 µM [inhibitor, partial curve, poor fit]	–
CCOc1ccc(NC(=O)C2C(C(=O)O)C3(Cl)C(Cl)=C(Cl)C2(Cl)C3(Cl)Cl)cc1 (configuration not stated)	inconclusive: 44.7 µM [inhibitor, partial curve]	–
O=C(NNC1=C(C(=O)C(F)(F)F)CCC1)c1ccccc1O	inactive	–
COc1ccc(NC(=S)N2CCC3CC2c2cc(-c4ccc5c(c4)OCO5)ccc23)c(OC)c1 (configuration not stated)	inconclusive: 35.5 µM [inhibitor, partial curve, poor fit]	–
Cc1ccccc1C(=O)N1CC(=O)Nc2ccc(F)cc2C1c1ccc(F)cc1 (configuration not stated)	inconclusive: 126 µM [inhibitor, single point]	–

Single records (already shown). Values in the order: Potency	activity change, negative = inhibition
O=C(CCN1CCN(c2ccccc2)CC1)N/N=C/c1ccc(O)c(O)c1O in the list: inconclusive: 12.6 µM [inhibitor, full curve, poor fit]	–
COCc1nncn1C1CCN(C(=O)c2ccc(F)c(Cl)c2)CC1 in the list: inactive	–
O=C(NNC(=S)NC(=O)c1cccnc1)c1ccc(Cl)cc1 in the list: inconclusive: 44.7 µM [inhibitor, partial curve, poor fit]	–
